Here are results for five molecules from PMC4534575, “The RNA Helicase DHX34 Activates NMD by Promoting a Transition from the Surveillance to the Decay-Inducing Complex” (Cell Reports, 2014).

By UniProt entry, the sequences of proteins in these tests, tags left out.
UniProt Q09161: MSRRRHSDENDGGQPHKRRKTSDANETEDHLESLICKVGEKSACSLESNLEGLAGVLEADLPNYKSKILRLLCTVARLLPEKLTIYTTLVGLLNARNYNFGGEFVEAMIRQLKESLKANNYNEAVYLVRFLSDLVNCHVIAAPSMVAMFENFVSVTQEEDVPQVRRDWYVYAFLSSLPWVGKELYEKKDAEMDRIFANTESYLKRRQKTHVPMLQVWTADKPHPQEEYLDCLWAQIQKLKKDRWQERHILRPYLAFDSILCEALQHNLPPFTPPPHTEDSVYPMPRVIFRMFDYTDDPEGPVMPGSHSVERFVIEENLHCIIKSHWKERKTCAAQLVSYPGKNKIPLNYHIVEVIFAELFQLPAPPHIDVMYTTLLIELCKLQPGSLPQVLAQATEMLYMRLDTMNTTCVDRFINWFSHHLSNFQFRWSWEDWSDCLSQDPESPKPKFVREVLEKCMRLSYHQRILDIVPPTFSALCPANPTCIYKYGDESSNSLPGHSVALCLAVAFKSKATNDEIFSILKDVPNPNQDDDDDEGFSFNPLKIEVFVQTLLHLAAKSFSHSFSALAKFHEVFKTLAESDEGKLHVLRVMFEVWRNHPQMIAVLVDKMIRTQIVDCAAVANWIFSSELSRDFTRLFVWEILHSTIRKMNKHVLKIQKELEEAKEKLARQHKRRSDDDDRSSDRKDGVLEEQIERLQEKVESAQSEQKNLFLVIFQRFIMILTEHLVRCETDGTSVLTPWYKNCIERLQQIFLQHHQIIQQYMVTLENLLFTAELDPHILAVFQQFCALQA
UniProt P38919: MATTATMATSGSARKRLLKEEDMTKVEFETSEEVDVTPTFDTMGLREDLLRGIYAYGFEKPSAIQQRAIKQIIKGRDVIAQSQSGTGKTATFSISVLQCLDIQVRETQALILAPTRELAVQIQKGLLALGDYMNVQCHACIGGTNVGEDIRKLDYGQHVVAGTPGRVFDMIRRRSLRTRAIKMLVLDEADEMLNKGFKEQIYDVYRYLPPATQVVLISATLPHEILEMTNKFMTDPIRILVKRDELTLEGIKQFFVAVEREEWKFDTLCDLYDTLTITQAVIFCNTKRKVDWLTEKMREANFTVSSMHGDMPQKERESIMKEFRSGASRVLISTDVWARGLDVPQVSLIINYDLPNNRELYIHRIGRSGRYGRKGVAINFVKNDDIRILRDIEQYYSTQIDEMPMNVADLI

The assay concerns the target T1, endogenous DHX34 (human (endogenous in HEK293T)) (UniProt Q14147).
T1 sequence: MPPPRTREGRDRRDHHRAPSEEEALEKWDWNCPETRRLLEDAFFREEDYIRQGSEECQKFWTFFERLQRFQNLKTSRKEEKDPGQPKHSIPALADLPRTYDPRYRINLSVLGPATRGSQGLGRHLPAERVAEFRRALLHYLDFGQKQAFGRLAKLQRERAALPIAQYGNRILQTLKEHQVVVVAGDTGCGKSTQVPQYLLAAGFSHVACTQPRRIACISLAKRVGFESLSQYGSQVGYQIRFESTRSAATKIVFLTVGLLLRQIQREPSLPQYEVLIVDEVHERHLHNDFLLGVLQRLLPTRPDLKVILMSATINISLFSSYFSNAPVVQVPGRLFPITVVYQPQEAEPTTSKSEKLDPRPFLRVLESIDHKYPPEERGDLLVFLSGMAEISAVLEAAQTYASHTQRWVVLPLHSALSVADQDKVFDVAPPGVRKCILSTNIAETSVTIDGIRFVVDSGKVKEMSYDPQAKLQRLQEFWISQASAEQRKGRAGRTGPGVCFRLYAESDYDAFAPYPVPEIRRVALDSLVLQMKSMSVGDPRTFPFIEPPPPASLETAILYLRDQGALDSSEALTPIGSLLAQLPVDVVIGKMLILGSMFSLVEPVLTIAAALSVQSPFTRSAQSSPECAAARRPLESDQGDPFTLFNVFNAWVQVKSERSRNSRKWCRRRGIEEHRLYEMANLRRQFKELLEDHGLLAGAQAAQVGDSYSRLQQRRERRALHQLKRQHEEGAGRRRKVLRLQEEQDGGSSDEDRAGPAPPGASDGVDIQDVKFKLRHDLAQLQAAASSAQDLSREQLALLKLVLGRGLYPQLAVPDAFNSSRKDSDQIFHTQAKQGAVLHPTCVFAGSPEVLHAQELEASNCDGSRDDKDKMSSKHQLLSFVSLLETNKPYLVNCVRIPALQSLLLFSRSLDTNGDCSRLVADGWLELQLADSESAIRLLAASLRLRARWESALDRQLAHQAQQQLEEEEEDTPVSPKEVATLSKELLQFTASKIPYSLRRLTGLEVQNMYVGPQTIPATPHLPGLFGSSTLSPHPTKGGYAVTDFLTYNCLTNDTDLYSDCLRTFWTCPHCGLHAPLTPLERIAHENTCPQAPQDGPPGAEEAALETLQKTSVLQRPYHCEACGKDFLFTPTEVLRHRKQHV
As to the kind of experiment: affinity purification with mass spectrometry; endogenous DHX34 immunopurified from HEK293T cells, in the absence of RNases; preimmune serum as control; nLC-MS/MS.

These are yes or no findings as the source states them, for the method shown. In cells and extracts the contact can be indirect. A yes stands for co-enrichment or nearness to the bait. Other partners may have been found.

With “mRNA Cap-binding protein CBP80 (from UniProt Q09161 1-790)”, the binding result is recorded as “binds”.

On to “EJC component eIF4A3 (from UniProt P38919 1-411)”, for which the binding entry is given as “binds”.

B1: 5' to 3' exonuclease XRN2 (protein, UniProt Q9H0D6 1-950)
chain: MGVPAFFRWLSRKYPSIIVNCVEEKPKECNGVKIPVDASKPNPNDVEFDNLYLDMNGIIHPCTHPEDKPAPKNEDEMMVAIFEYIDRLFSIVRPRRLLYMAIDGVAPRAKMNQQRSRRFRASKEGMEAAVEKQRVREEILAKGGFLPPEEIKERFDSNCITPGTEFMDNLAKCLRYYIADRLNNDPGWKNLTVILSDASAPGEGEHKIMDYIRRQRAQPNHDPNTHHCLCGADADLIMLGLATHEPNFTIIREEFKPNKPKPCGLCNQFGHEVKDCEGLPREKKGKHDELADSLPCAEGEFIFLRLNVLREYLERELTMASLPFTFDVERSIDDWVFMCFFVGNDFLPHLPSLEIRENAIDRLVNIYKNVVHKTGGYLTESGYVNLQRVQMIMLAVGEVEDSIFKKRKDDEDSFRRRQKEKRKRMKRDQPAFTPSGILTPHALGSRNSPGSQVASNPRQAAYEMRMQNNSSPSISPNTSFTSDGSPSPLGGIKRKAEDSDSEPEPEDNVRLWEAGWKQRYYKNKFDVDAADEKFRRKVVQSYVEGLCWVLRYYYQGCASWKWYYPFHYAPFASDFEGIADMPSDFEKGTKPFKPLEQLMGVFPAASGNFLPPSWRKLMSDPDSSIIDFYPEDFAIDLNGKKYAWQGVALLPFVDERRLRAALEEVYPDLTPEETRRNSLGGDVLFVGKHHPLHDFILELYQTGSTEPVEVPPELCHGIQGKFSLDEEAILPDQIVCSPVPMLRDLTQNTVVSINFKDPQFAEDYIFKAVMLPGARKPAAVLKPSDWEKSSNGRQWKPQLGFNRDRRPVHLDQAAFRTLGHVMPRGSGTGIYSNAAPPPVTYQGNLYRPLLRGQAQIPKLMSNMRPQDSWRGPPPLFQQQRFDRGVGAEPLLPWNRMLQTQNAAFQPNQYQMLAGPGGYPPRRDDRGGRQGYPREGRKYPLPPPSGRYNWN
For the molecule B1, the binding result is “binds”.

B2: endogenous UPF1 (protein, UniProt Q92900 1-1129)
chain: MSVEAYGPSSQTLTFLDTEEAELLGADTQGSEFEFTDFTLPSQTQTPPGGPGGPGGGGAGGPGGAGAGAAAGQLDAQVGPEGILQNGAVDDSVAKTSQLLAELNFEEDEEDTYYTKDLPIHACSYCGIHDPACVVYCNTSKKWFCNGRGNTSGSHIVNHLVRAKCKEVTLHKDGPLGETVLECYNCGCRNVFLLGFIPAKADSVVVLLCRQPCASQSSLKDINWDSSQWQPLIQDRCFLSWLVKIPSEQEQLRARQITAQQINKLEELWKENPSATLEDLEKPGVDEEPQHVLLRYEDAYQYQNIFGPLVKLEADYDKKLKESQTQDNITVRWDLGLNKKRIAYFTLPKTDSGNEDLVIIWLRDMRLMQGDEICLRYKGDLAPLWKGIGHVIKVPDNYGDEIAIELRSSVGAPVEVTHNFQVDFVWKSTSFDRMQSALKTFAVDETSVSGYIYHKLLGHEVEDVIIKCQLPKRFTAQGLPDLNHSQVYAVKTVLQRPLSLIQGPPGTGKTVTSATIVYHLARQGNGPVLVCAPSNIAVDQLTEKIHQTGLKVVRLCAKSREAIDSPVSFLALHNQIRNMDSMPELQKLQQLKDETGELSSADEKRYRALKRTAERELLMNADVICCTCVGAGDPRLAKMQFRSILIDESTQATEPECMVPVVLGAKQLILVGDHCQLGPVVMCKKAAKAGLSQSLFERLVVLGIRPIRLQVQYRMHPALSAFPSNIFYEGSLQNGVTAADRVKKGFDFQWPQPDKPMFFYVTQGQEEIASSGTSYLNRTEAANVEKITTKLLKAGAKPDQIGIITPYEGQRSYLVQYMQFSGSLHTKLYQEVEIASVDAFQGREKDFIILSCVRANEHQGIGFLNDPRRLNVALTRARYGVIIVGNPKALSKQPLWNHLLNYYKEQKVLVEGPLNNLRESLMQFSKPRKLVNTINPGARFMTTAMYDAREAIIPGSVYDRSSQGRPSSMYFQTHDQIGMISAGPSHVAAMNIPIPFNLVMPPMPPPGYFGQANGPAAGRGTPKGKTGRGGRQKNRFGLPGPSQTNLPNSQASQDVASQPFSQGALTQGYISMSQPSQMSQPGLSQPELSQDSYLGDEFKSQIDVALSQDSTYQGERAYQHGGVTGLSQY
On to B2, for which the binding result is given as “binds”.

B3: RNA helicase MOV10 (protein, UniProt Q9HCE1 1-1003)
chain: MPSKFSCRQLREAGQCFESFLVVRGLDMETDRERLRTIYNRDFKISFGTPAPGFSSMLYGMKIANLAYVTKTRVRFFRLDRWADVRFPEKRRMKLGSDISKHHKSLLAKIFYDRAEYLHGKHGVDVEVQGPHEARDGQLLIRLDLNRKEVLTLRLRNGGTQSVTLTHLFPLCRTPQFAFYNEDQELPCPLGPGECYELHVHCKTSFVGYFPATVLWELLGPGESGSEGAGTFYIARFLAAVAHSPLAAQLKPMTPFKRTRITGNPVVTNRIEEGERPDRAKGYDLELSMALGTYYPPPRLRQLLPMLLQGTSIFTAPKEIAEIKAQLETALKWRNYEVKLRLLLHLEELQMEHDIRHYDLESVPMTWDPVDQNPRLLTLEVPGVTESRPSVLRGDHLFALLSSETHQEDPITYKGFVHKVELDRVKLSFSMSLLSRFVDGLTFKVNFTFNRQPLRVQHRALELTGRWLLWPMLFPVAPRDVPLLPSDVKLKLYDRSLESNPEQLQAMRHIVTGTTRPAPYIIFGPPGTGKTVTLVEAIKQVVKHLPKAHILACAPSNSGADLLCQRLRVHLPSSIYRLLAPSRDIRMVPEDIKPCCNWDAKKGEYVFPAKKKLQEYRVLITTLITAGRLVSAQFPIDHFTHIFIDEAGHCMEPESLVAIAGLMEVKETGDPGGQLVLAGDPRQLGPVLRSPLTQKHGLGYSLLERLLTYNSLYKKGPDGYDPQFITKLLRNYRSHPTILDIPNQLYYEGELQACADVVDRERFCRWAGLPRQGFPIIFHGVMGKDEREGNSPSFFNPEEAATVTSYLKLLLAPSSKKGKARLSPRSVGVISPYRKQVEKIRYCITKLDRELRGLDDIKDLKVGSVEEFQGQERSVILISTVRSSQSFVQLDLDFNLGFLKNPKRFNVAVTRAKALLIIVGNPLLLGHDPDWKVFLEFCKENGGYTGCPFPAKLDLQQGQNLLQGLSKLSPSTSGPHSHDYLPQEREGEGGLSLQVEPEWRNEL
With B3, the binding result was “binds”.
